Data reported in publication doi:10.1101/806802.
These are yes or no findings as the source states them, for the method shown. For part of these data: Binding seen in cells or lysates may run through a third protein. Some entries that bind do so weakly or less than the wild type. For part of these data: Sequences can lack the tags named with a protein. Blank lines part the entries; values can stand above or below the binder they belong to.

Tests used:
[1] = target: T1, EDS1, full-length, GAL4 DNA-binding domain fusion in pBridge (Arabidopsis thaliana) (UniProt Q9SU72); assay: yeast three-hybrid
T1 sequence: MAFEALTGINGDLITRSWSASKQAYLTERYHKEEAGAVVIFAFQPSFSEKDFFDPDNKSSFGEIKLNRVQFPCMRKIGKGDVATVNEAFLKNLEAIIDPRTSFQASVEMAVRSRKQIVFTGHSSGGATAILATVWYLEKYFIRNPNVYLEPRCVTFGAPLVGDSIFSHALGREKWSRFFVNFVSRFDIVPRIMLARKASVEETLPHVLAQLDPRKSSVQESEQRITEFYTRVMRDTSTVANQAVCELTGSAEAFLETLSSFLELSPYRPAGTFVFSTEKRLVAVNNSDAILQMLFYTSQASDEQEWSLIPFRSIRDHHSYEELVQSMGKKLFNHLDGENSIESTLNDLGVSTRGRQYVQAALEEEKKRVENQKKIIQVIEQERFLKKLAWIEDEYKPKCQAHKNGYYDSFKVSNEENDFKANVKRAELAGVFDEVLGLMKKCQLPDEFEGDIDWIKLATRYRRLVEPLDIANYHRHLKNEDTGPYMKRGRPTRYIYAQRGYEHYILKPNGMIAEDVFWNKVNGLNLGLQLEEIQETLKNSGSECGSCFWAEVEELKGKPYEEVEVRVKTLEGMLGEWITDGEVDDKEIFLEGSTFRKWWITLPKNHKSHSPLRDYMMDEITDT

[2] = target: EDR1^D810A, full-length substrate-trap mutant, GAL4 DNA-binding domain fusion (Arabidopsis thaliana) (UniProt Q9FPR3); assay: two-hybrid
[3] = target: T1, EDS1, full-length, GAL4 DNA-binding domain fusion in pBridge (Arabidopsis thaliana); assay: two-hybrid
[4] = target: EDR1^ST-sYFP (D810A) (Arabidopsis thaliana) (UniProt Q9FPR3); assay: co-IP
[5] = target: EDR1 (ENHANCED DISEASE …1), full-length, GAL4 DNA-binding domain fusion (Arabidopsis thaliana) (UniProt Q9FPR3); assay: two-hybrid
[6] = target: EDR1-sYFP (Arabidopsis thaliana) (UniProt Q9FPR3); assay: co-IP
[7] = target: T2, PAD4-mCherry (Arabidopsis thaliana) (UniProt Q9S745); assay: co-IP
T2 sequence: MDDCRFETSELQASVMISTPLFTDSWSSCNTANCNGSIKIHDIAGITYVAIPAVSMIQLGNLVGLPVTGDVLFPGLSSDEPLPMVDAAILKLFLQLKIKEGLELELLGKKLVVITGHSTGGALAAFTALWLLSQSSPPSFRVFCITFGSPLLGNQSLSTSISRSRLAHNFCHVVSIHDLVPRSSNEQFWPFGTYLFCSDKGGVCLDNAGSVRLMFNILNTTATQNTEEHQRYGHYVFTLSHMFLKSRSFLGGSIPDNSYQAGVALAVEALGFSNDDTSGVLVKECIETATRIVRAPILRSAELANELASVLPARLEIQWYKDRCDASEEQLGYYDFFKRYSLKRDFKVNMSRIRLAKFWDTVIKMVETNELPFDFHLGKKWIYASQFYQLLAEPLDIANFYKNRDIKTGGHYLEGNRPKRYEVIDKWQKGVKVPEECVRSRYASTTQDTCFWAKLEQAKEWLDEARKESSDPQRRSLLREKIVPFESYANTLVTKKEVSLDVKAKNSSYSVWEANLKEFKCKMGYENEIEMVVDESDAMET

binding [1]: binds
binding [2]: binds
binding [3]: binds
B1: PAD4 (PHYTOALEXIN …4), full-length, GAL4 activation domain fusion (protein, UniProt Q9S745 1-541)
chain: MDDCRFETSELQASVMISTPLFTDSWSSCNTANCNGSIKIHDIAGITYVAIPAVSMIQLGNLVGLPVTGDVLFPGLSSDEPLPMVDAAILKLFLQLKIKEGLELELLGKKLVVITGHSTGGALAAFTALWLLSQSSPPSFRVFCITFGSPLLGNQSLSTSISRSRLAHNFCHVVSIHDLVPRSSNEQFWPFGTYLFCSDKGGVCLDNAGSVRLMFNILNTTATQNTEEHQRYGHYVFTLSHMFLKSRSFLGGSIPDNSYQAGVALAVEALGFSNDDTSGVLVKECIETATRIVRAPILRSAELANELASVLPARLEIQWYKDRCDASEEQLGYYDFFKRYSLKRDFKVNMSRIRLAKFWDTVIKMVETNELPFDFHLGKKWIYASQFYQLLAEPLDIANFYKNRDIKTGGHYLEGNRPKRYEVIDKWQKGVKVPEECVRSRYASTTQDTCFWAKLEQAKEWLDEARKESSDPQRRSLLREKIVPFESYANTLVTKKEVSLDVKAKNSSYSVWEANLKEFKCKMGYENEIEMVVDESDAMET

binding [4]: binds
B2: PAD4-mCherry (protein, UniProt Q9S745 1-541)
chain: MDDCRFETSELQASVMISTPLFTDSWSSCNTANCNGSIKIHDIAGITYVAIPAVSMIQLGNLVGLPVTGDVLFPGLSSDEPLPMVDAAILKLFLQLKIKEGLELELLGKKLVVITGHSTGGALAAFTALWLLSQSSPPSFRVFCITFGSPLLGNQSLSTSISRSRLAHNFCHVVSIHDLVPRSSNEQFWPFGTYLFCSDKGGVCLDNAGSVRLMFNILNTTATQNTEEHQRYGHYVFTLSHMFLKSRSFLGGSIPDNSYQAGVALAVEALGFSNDDTSGVLVKECIETATRIVRAPILRSAELANELASVLPARLEIQWYKDRCDASEEQLGYYDFFKRYSLKRDFKVNMSRIRLAKFWDTVIKMVETNELPFDFHLGKKWIYASQFYQLLAEPLDIANFYKNRDIKTGGHYLEGNRPKRYEVIDKWQKGVKVPEECVRSRYASTTQDTCFWAKLEQAKEWLDEARKESSDPQRRSLLREKIVPFESYANTLVTKKEVSLDVKAKNSSYSVWEANLKEFKCKMGYENEIEMVVDESDAMET

Further lines, the binder ahead of its results:

B3: EDS1 (ENHANCED DISEASE SUSCEPTIBILITY1), full-length, GAL4 activation domain fusion (protein, UniProt Q9SU72 1-623)
chain: MAFEALTGINGDLITRSWSASKQAYLTERYHKEEAGAVVIFAFQPSFSEKDFFDPDNKSSFGEIKLNRVQFPCMRKIGKGDVATVNEAFLKNLEAIIDPRTSFQASVEMAVRSRKQIVFTGHSSGGATAILATVWYLEKYFIRNPNVYLEPRCVTFGAPLVGDSIFSHALGREKWSRFFVNFVSRFDIVPRIMLARKASVEETLPHVLAQLDPRKSSVQESEQRITEFYTRVMRDTSTVANQAVCELTGSAEAFLETLSSFLELSPYRPAGTFVFSTEKRLVAVNNSDAILQMLFYTSQASDEQEWSLIPFRSIRDHHSYEELVQSMGKKLFNHLDGENSIESTLNDLGVSTRGRQYVQAALEEEKKRVENQKKIIQVIEQERFLKKLAWIEDEYKPKCQAHKNGYYDSFKVSNEENDFKANVKRAELAGVFDEVLGLMKKCQLPDEFEGDIDWIKLATRYRRLVEPLDIANYHRHLKNEDTGPYMKRGRPTRYIYAQRGYEHYILKPNGMIAEDVFWNKVNGLNLGLQLEEIQETLKNSGSECGSCFWAEVEELKGKPYEEVEVRVKTLEGMLGEWITDGEVDDKEIFLEGSTFRKWWITLPKNHKSHSPLRDYMMDEITDT
binding [5]: binds
binding [2]: binds

B4: EDS1-3xHA (protein, UniProt Q9SU72 1-623)
chain: MAFEALTGINGDLITRSWSASKQAYLTERYHKEEAGAVVIFAFQPSFSEKDFFDPDNKSSFGEIKLNRVQFPCMRKIGKGDVATVNEAFLKNLEAIIDPRTSFQASVEMAVRSRKQIVFTGHSSGGATAILATVWYLEKYFIRNPNVYLEPRCVTFGAPLVGDSIFSHALGREKWSRFFVNFVSRFDIVPRIMLARKASVEETLPHVLAQLDPRKSSVQESEQRITEFYTRVMRDTSTVANQAVCELTGSAEAFLETLSSFLELSPYRPAGTFVFSTEKRLVAVNNSDAILQMLFYTSQASDEQEWSLIPFRSIRDHHSYEELVQSMGKKLFNHLDGENSIESTLNDLGVSTRGRQYVQAALEEEKKRVENQKKIIQVIEQERFLKKLAWIEDEYKPKCQAHKNGYYDSFKVSNEENDFKANVKRAELAGVFDEVLGLMKKCQLPDEFEGDIDWIKLATRYRRLVEPLDIANYHRHLKNEDTGPYMKRGRPTRYIYAQRGYEHYILKPNGMIAEDVFWNKVNGLNLGLQLEEIQETLKNSGSECGSCFWAEVEELKGKPYEEVEVRVKTLEGMLGEWITDGEVDDKEIFLEGSTFRKWWITLPKNHKSHSPLRDYMMDEITDT
binding [6]: binds
binding [4]: binds
binding [7]: binds
